Test results from PMC2948513 (PLoS ONE, 2010).
No constants are given. Whether binding was seen depends on the method and setting. Some binding calls cover weakened binding; strength is not graded here.

Sequences of proteins named here, by UniProt entry; tags and fusion partners are left off. A change or cut given only in a name is not applied to a line headed by its entry. Residues count along the entry.
UniProt P15311, residues 1-310: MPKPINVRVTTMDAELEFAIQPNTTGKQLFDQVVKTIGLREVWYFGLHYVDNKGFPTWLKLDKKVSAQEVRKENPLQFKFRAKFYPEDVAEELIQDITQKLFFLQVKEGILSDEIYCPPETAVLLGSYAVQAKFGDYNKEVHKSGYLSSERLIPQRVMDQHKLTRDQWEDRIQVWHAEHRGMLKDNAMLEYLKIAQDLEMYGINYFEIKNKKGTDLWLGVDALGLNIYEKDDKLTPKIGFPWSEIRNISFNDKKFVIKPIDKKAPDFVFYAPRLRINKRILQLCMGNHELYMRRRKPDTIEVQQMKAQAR
UniProt P68400: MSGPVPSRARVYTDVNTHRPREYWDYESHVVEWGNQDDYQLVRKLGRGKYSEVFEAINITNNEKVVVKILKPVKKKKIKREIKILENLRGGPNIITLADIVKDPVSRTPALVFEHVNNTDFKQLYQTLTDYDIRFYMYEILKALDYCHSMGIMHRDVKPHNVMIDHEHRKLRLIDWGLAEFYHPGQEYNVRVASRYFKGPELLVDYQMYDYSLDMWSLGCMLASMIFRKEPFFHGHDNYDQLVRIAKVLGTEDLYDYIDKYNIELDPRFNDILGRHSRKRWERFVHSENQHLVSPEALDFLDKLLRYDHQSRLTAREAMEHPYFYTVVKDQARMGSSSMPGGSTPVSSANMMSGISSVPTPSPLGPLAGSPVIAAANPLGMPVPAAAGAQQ

How the values were obtained:
[1] = target: T1, synthetic biotin-labeled peptide representing the N-terminal cytoplasmic domain (aa 2-23) of human NEP with serine 6 phosphorylated (human) (UniProt P08473); assay: pull-down; biotin-labeled NEP NT peptides coupled to Streptavidin-agarose beads, incubated with GST PTEN-CT (2 µM), MBP Ezrin-NT (100 nM) or CK2 (30 nM) in 10 mM Tris/HCl pH 7.4, 150 mM NaCl, 0.4% Igepal for 2 hrs; bound proteins detected by Western immunoblotting; both purified
T1 sequence (peptide, phosphoserine at 6; biotin on a C-terminal lysine): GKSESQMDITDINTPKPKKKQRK

[2] = target: T2, synthetic biotin-labeled peptide representing the N-terminal cytoplasmic domain (aa 2-23) of human NEP, non-phosphorylated (human) (UniProt P08473); assay: as above
T2 sequence (peptide, biotin on a C-terminal lysine): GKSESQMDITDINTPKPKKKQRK

binding [1]	binding [2]	Substance
binds	–	fusion protein of the maltose binding protein (MBP) and the N-terminus of Ezrin (amino acids 1-310) (from UniProt P15311 1-310) (domain or fragment)
–	binds	recombinant protein kinase CK2 (alpha and beta subunit; New England Biolabs) (from UniProt P68400 1-391; P67870 1-215) (complex)
